According to doi:10.1101/2021.03.29.435803:
No constants are given. Whether binding was seen depends on the method and setting. In cells and extracts the contact can be indirect. Some binding calls cover weakened binding; strength is not graded here.

Chains of the proteins cited; added tags and fusions are not shown.
UniProt Q60843: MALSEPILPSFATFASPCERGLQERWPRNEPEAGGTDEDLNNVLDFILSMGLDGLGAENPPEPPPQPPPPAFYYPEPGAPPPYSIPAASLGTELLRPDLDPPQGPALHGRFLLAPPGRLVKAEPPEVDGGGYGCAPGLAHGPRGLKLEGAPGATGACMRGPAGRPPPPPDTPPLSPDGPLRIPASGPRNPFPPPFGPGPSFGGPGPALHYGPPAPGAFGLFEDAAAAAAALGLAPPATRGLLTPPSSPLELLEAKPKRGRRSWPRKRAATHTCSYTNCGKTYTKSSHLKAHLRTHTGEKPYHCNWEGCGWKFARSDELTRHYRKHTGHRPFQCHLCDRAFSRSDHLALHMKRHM
UniProt Q8VBV4: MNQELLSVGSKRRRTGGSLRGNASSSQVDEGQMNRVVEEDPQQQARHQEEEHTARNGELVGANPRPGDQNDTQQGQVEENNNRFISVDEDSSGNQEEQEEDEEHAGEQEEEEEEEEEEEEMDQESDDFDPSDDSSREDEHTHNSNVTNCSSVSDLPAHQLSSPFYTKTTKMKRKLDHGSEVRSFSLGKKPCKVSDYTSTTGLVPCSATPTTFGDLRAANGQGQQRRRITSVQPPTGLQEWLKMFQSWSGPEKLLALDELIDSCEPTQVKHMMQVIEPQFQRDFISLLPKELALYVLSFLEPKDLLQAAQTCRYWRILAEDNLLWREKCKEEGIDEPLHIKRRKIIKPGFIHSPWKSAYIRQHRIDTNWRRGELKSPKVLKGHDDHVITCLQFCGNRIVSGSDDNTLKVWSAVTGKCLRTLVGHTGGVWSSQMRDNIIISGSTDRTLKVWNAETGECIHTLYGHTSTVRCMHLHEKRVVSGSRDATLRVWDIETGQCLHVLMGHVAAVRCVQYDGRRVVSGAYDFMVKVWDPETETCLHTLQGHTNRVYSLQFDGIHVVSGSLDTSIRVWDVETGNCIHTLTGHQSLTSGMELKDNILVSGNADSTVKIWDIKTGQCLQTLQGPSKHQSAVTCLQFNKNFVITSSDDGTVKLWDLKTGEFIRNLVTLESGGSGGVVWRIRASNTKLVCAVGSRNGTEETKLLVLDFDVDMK

Target: 3xFLAG-KLF2 wildtype (UniProt Q60843)
Experiment: co-IP

binding: binds
Substance: HA-FBXW7 (from UniProt Q8VBV4 1-710)
